At least one compound was matched to its structure with a doubt left.
Test: Water solubility of hydrogenation catalysts (Table 1)
Format: physicochemical
Settings: hydrogenation catalysts that transfer dihydrogen to a double or triple bond; symbols + / − not defined in the patent

SMILES | Water Solubility
[Cl-].[Rh].c1ccc(P(c2ccccc2)c2ccccc2)cc1.c1ccc(P(c2ccccc2)c2ccccc2)cc1.c1ccc(P(c2ccccc2)c2ccccc2)cc1 [(PPh3)RhCl, Wilkinson's catalyst] | −
[C-]#[O+].[Cl-].[Ir].c1ccc(P(c2ccccc2)c2ccccc2)cc1.c1ccc(P(c2ccccc2)c2ccccc2)cc1 [IrCl(CO)(PPh3)2, Vasca's complex] | −
